The values below come from publication doi:10.1101/2021.09.16.460581.

To fix the notation:
T1: Mrc1-YFP (S. cerevisiae) (UniProt P25588)
T1 sequence: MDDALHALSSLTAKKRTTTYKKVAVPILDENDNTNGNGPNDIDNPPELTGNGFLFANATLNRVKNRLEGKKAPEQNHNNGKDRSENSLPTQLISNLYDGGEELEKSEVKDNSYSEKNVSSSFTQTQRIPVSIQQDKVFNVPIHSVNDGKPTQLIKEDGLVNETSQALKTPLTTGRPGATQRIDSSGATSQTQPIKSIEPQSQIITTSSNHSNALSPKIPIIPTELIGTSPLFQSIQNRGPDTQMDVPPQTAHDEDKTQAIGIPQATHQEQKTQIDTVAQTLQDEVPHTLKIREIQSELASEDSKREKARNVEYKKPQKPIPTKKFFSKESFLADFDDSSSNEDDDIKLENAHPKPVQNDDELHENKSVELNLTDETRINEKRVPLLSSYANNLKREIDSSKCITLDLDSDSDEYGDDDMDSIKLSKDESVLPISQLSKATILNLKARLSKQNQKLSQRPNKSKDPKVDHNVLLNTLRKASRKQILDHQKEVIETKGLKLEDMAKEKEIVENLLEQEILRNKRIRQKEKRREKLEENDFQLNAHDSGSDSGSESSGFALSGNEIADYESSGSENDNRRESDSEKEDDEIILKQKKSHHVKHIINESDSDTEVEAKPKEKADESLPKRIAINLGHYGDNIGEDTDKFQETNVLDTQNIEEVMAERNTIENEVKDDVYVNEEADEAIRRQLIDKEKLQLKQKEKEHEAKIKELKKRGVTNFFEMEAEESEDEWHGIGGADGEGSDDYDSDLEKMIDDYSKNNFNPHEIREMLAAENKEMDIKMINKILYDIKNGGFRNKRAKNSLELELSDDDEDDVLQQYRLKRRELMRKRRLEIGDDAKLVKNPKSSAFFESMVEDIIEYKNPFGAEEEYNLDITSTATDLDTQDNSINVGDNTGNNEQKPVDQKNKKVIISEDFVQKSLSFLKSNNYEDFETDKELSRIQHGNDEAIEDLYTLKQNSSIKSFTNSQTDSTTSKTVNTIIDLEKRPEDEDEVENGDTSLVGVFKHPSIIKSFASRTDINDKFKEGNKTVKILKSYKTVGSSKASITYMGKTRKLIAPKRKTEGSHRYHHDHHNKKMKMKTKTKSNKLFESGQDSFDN

B1: Mcm7 (protein, UniProt P38132 1-845)
chain: MSAALPSIQLPVDYNNLFNEITDFLVTFKQDTLSSDATRNENEDENLDAENIEQHLLEKGPKYMAMLQKVANRELNSVIIDLDDILQYQNEKFLQGTQADDLVSAIQQNANHFTELFCRAIDNNMPLPTKEIDYKDDVLDVILNQRRLRNERMLSDRTNEIRSENLMDTTMDPPSSMNDALREVVEDETELFPPNLTRRYFLYFKPLSQNCARRYRKKAISSKPLSVRQIKGDFLGQLITVRGIITRVSDVKPAVEVIAYTCDQCGYEVFQEVNSRTFTPLSECTSEECSQNQTKGQLFMSTRASKFSAFQECKIQELSQQVPVGHIPRSLNIHVNGTLVRSLSPGDIVDVTGIFLPAPYTGFKALKAGLLTETYLEAQFVRQHKKKFASFSLTSDVEERVMELITSGDVYNRLAKSIAPEIYGNLDVKKALLLLLVGGVDKRVGDGMKIRGDINVCLMGDPGVAKSQLLKAICKISPRGVYTTGKGSSGVGLTAAVMKDPVTDEMILEGGALVLADNGICCIDEFDKMDESDRTAIHEVMEQQTISISKAGINTTLNARTSILAAANPLYGRYNPRLSPLDNINLPAALLSRFDILFLMLDIPSRDDDEKLAEHVTYVHMHNKQPDLDFTPVEPSKMREYIAYAKTKRPVMSEAVNDYVVQAYIRLRQDSKREMDSKFSFGQATPRTLLGIIRLSQALAKLRLADMVDIDDVEEALRLVRVSKESLYQETNKSKEDESPTTKIFTIIKKMLQETGKNTLSYENIVKTVRLRGFTMLQLSNCIQEYSYLNVWHLINEGNTLKFVDDGTMDTDQEDSLVSTPKLAPQTTASANVSAQDSDIDLQDA
B2: Irr1 (protein, UniProt P40541 1-1150)
chain: MTAVRRSTRIRTKSQVIEEDYDDEQNTSAQHVESDKITAKTQHEEEEEQDTGESEESSSEDDYEDQDDDDYVDTATAKRKSRKRKPKSASNTSSKRQKKKPTSAQKSAVSHAPAYHRSKKDQDQYLEIAKDFQPTELFDILSTSEDVSIEELLREWLETYSENRDKFLQEFINLLLNCCGSVARVEDHDVHSNESSNETIGEIQLLFQRQKLHEFYLLISKENKKRKNFKMGPLYQNFAEFMTKLLEVANDLQLLYVESDEDDTQIVTGNLVLDLLTWLSSFSVCKIRCFRYISTLTLYLFQDYLTQQAVNLEKNYLAKLSKQLSLEEKKKRPNNKTLEKLESTIAETQGSKVVIDSIIDNIVKLCFVHRYKDVSDLIRSESMLHLSIWIKNYPEYFLKVTFLKYFGWLLSDNSVSVRLQVTKILPHLIIQNHNSKSTDNSAIRQVFERFKTKILEVAIRDVNLDVRIHSIQVLTEASSLGYLDDSEILIISSLMFDEEFDPFKTSSFNKRSKFLSTVAKFLARVIKEKFDEFIKTHEDLPKEVDGLEVGPVVQVGIFIKILNDSLIYHLKDCAEVDSRTKIRMLTQAAEFLSPYISTHLKTICNLLISDTESNELIQKLQNSANNNSDDEDVDDEELDITPLFPIDRNSTILYLNVFHGLCAGANNPKIQTKDSVKEIVLPLFYDLLNAASIESADILCPLLESFITFSLDDWISIGYETELKKITDKTIKAFMDSTIGNSKVDMKYDIFAKFIHHIHHFEKKELQEKFLNQIATLKIHLKKFLQEKMDPNNSRDDYKDLTCSLYELYINKLTILGRDYPIEVDEELLQLFLNNFVSRIPIMFQDFDDSTAQEINFKMLVLLATWNLEKWREIIEKVRDYENSISKDLRSVWKPIAAIIGRLNTLVISLAATNETFENINSLFYLKWSACTSLMDIIVAIKIFELKLPADATTWRYSMSEQFPFYLHDNASKVLLKIFLYLESLFAKQVDVQLERVADEDANLNDLPETGFFENIETEFLLFTVKLKGLMKLNILDERFASRVALNKEKLGPLFKKIVDDTIMENPEPNKKNIQKAKSNQTQREKAPLQPNSERETDHANTENNDPDIPMTIDLEPIEESSQNNSELAPIEEHPTVVDAIDNSDEITQD
B3: Sis1 (protein, UniProt P25294 1-352)
chain: MVKETKLYDLLGVSPSANEQELKKGYRKAALKYHPDKPTGDTEKFKEISEAFEILNDPQKREIYDQYGLEAARSGGPSFGPGGPGGAGGAGGFPGGAGGFSGGHAFSNEDAFNIFSQFFGGSSPFGGADDSGFSFSSYPSGGGAGMGGMPGGMGGMHGGMGGMPGGFRSASSSPTYPEEETVQVNLPVSLEDLFVGKKKSFKIGRKGPHGASEKTQIDIQLKPGWKAGTKITYKNQGDYNPQTGRRKTLQFVIQEKSHPNFKRDGDDLIYTLPLSFKESLLGFSKTIQTIDGRTLPLSRVQPVQPSQTSTYPGQGMPTPKNPSQRGNLIVKYKVDYPISLNDAQKRAIDENF
B4: Pds5 (protein, UniProt Q04264 1-1277)
chain: MAKGAVTKLKFNSPIISTSDQLISTNELLDRLKALHEELASLDQDNTDLTGLDKYRDALVSRKLLKHKDVGIRAFTACCLSDILRLYAPDAPYTDAQLTDIFKLVLSQFEQLGDQENGYHIQQTYLITKLLEYRSIVLLADLPSSNNLLIELFHIFYDPNKSFPARLFNVIGGILGEVISEFDSVPLEVLRLIFNKFLTYNPNEIPEGLNVTSDCGYEVSLILCDTYSNRMSRHLTKYYSEIIHEATNDDNNSRLLTVVVKLHKLVLRLWETVPELINAVIGFIYHELSSENELFRKEATKLIGQILTSYSDLNFVSTHSDTFKAWISKIADISPDVRVEWTESIPQIIATREDISKELNQALAKTFIDSDPRVRRTSVMIFNKVPVTEIWKNITNKAIYTSLLHLAREKHKEVRELCINTMAKFYSNSLNEIERTYQNKEIWEIIDTIPSTLYNLYYINDLNINEQVDSVIFEYLLPFEPDNDKRVHRLLTVLSHFDKKAFTSFFAFNARQIKISFAISKYIDFSKFLNNQESMSSSQGPIVMNKYNQTLQWLASGLSDSTKAIDALETIKQFNDERIFYLLNACVTNDIPFLTFKNCYNELVSKLQTPGLFKKYNISTGASIMPRDIAKVIQILLFRASPIIYNVSNISVLLNLSNNSDAKQLDLKRRILDDISKVNPTLFKDQIRTLKTIIKDLDDPDAEKNDNLSLEEALKTLYKASKTLKDQVDFDDTFFFTKLYDFAVESKPEITKYATKLIALSPKAEETLKKIKIRILPLDLQKDKYFTSHIIVLMEIFKKFPHVLNDDSTDIISYLIKEVLLSNQVVGDSKKEIDWVEDSLLSDTKYSAIGNKVFTLKLFTNKLRSIAPDVPRDELAESFTEKTMKLFFYLIASGGELISEFNKEFYPTPSNYQTKLRCVAGIQVLKLARISNLNNFIKPSDIIKLINLVEDESLPVRKTFLEQLKDYVANELISIKFLPLVFFTAYEPDVELKTTTKIWINFTFGLKSFKKGTIFERALPRLIHAIAHHPDIVGGLDSEGDAYLNALTTAIDYLLFYFDSIAAQENFSLLYYLSERVKNYQDKLVEDEIDEEEGPQKEEAPKKHRPYGQKMYIIGELSQMILLNLKEKKNWQHSAYPGKLNLPSDLFKPFATVQEAQLSFKTYIPESLTEKIQNNIKAKIGRILHTSQTQRQRLQKRLLAHENNESQKKKKKVHHARSQADDEEGDGDRESDSDDDSYSPSNKNETKKGHENIVMKKLRVRKEVDYKDDEDDDIEMT
B5: Hsp26 (protein, UniProt P15992 1-214)
chain: MSFNSPFFDFFDNINNEVDAFNRLLGEGGLRGYAPRRQLANTPAKDSTGKEVARPNNYAGALYDPRDETLDDWFDNDLSLFPSGFGFPRSVAVPVDILDHDNNYELKVVVPGVKSKKDIDIEYHQNKNQILVSGEIPSTLNEESKDKVKVKESSSGKFKRVITLPDYPGVDADNIKADYANGVLTLTVPKLKPQKDGKNHVKKIEVSSQESWGN
B6: Mcm5 (protein, UniProt P29496 1-775)
chain: MSFDRPEIYSAPVLQGESPNDDDNTEIIKSFKNFILEFRLDSQFIYRDQLRNNILVKNYSLTVNMEHLIGYNEDIYKKLSDEPSDIIPLFETAITQVAKRISILSRAQSANNNDKDPENTSMDTDSLLLNSLPTFQLILNSNANQIPLRDLDSEHVSKIVRLSGIIISTSVLSSRATYLSIMCRNCRHTTSITINNFNSITGNTVSLPRSCLSTIESESSMANESNIGDESTKKNCGPDPYIIIHESSKFIDQQFLKLQEIPELVPVGEMPRNLTMTCDRYLTNKVIPGTRVTIVGIYSIYNSKNGAGSGRSGGGNGGSGVAIRTPYIKILGIQSDVETSSIWNSVTMFTEEEEEEFLQLSRNPKLYEILTNSIAPSIFGNEDIKKAIVCLLMGGSKKILPDGMRLRGDINVLLLGDPGTAKSQLLKFVEKVSPIAVYTSGKGSSAAGLTASVQRDPMTREFYLEGGAMVLADGGVVCIDEFDKMRDEDRVAIHEAMEQQTISIAKAGITTVLNSRTSVLAAANPIYGRYDDLKSPGDNIDFQTTILSRFDMIFIVKDDHNEERDISIANHVINIHTGNANAMQNQQEENGSEISIEKMKRYITYCRLKCAPRLSPQAAEKLSSNFVTIRKQLLINELESTERSSIPITIRQLEAIIRITESLAKLELSPIAQERHVDEAIRLFQASTMDAASQDPIGGLNQASGTSLSEIRRFEQELKRRLPIGWSTSYQTLRREFVDTHRFSQLALDKALYALEKHETIQLRHQGQNIYRSGV
B7: Sld5 (protein, UniProt Q03406 1-294)
chain: MDINIDDILAELDKETTAVDSTKITQGSSSTTHRDANTIVGSSLDLNDKTQIYVSPQQDFSDLMKSWKNERCSPELLPYPHQLMKRLLNRISMQSQLIENISMGFLDMQNASNANPPMPNESKLPLLCMETELERLKFVIRSYIRCRLSKIDKFSLYLRQLNEDENSLISLTDLLSKDEIKYHDTHSLIWLKLVNDSILKYMPEELQAINDTEGSVNMIDEPDWNKFVFIHVNGPPDGKWNEDPLLQENEFGKPCYTVTIPDLKEEVELTIGSIYVMRYEVIRDLLRDDKVALI

No constants are given. Whether binding was seen depends on the method and setting. Binding seen in cells or lysates may run through a third protein. Here binding means that the protein was enriched with, or labelled near, the bait; the list need not be complete. Sequences can lack the tags named with a protein.

The experiment addresses T1, Mrc1-YFP (S. cerevisiae). Kind of experiment: affinity purification with mass spectrometry.
Regarding B1, the binding result is reported as “binds”.
For B2 the value was “binds”; for B3, “binds”.
The entry for B4 is “binds”; for B5 it is “binds”.
For B6 the value was “binds”.
As for B7, the binding result is listed as “binds”.
